No constants are given. Whether binding was seen depends on the method and setting. In cells and extracts the contact can be indirect. These calls come from enrichment with a bait or labelling near it, and not all partners need be listed. No binding means not detected with the bait.
How the values were obtained:
FLAG-TRIM6 (human) = FLAG-TRIM6 (human) (UniProt Q9C030); test: affinity purification with mass spectrometry; FLAG-TRIM6 or FLAG-TRIM22 (or empty vector) in HEK293T, untreated or 18 h 5000 units/ml IFN-β; anti-FLAG cross-linked to Protein A/G beads; 0.5% IGEPAL, 100 mM KCl, 50 mM Tris pH 7.5, 5 mM MgCl2; DIA mass spectrometry
FLAG-TRIM22 (human) = FLAG-TRIM22 (human) (UniProt Q8IYM9); test: as above

Amino acid sequences for entries named in this document (tags omitted).
UniProt Q9C030: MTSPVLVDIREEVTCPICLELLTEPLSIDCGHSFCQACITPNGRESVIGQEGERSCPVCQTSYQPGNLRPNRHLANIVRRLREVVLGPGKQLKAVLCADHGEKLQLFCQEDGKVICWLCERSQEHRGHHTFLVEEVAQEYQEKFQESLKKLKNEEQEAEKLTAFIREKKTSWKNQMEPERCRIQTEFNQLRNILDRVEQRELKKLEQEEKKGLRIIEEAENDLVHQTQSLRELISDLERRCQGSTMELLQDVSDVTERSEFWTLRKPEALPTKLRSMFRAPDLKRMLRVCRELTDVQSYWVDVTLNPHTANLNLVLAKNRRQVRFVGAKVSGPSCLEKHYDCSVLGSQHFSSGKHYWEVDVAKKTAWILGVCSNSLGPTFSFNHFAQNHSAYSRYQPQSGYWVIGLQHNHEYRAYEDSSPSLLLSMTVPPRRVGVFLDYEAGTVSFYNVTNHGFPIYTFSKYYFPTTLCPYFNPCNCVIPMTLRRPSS
UniProt Q8IYM9: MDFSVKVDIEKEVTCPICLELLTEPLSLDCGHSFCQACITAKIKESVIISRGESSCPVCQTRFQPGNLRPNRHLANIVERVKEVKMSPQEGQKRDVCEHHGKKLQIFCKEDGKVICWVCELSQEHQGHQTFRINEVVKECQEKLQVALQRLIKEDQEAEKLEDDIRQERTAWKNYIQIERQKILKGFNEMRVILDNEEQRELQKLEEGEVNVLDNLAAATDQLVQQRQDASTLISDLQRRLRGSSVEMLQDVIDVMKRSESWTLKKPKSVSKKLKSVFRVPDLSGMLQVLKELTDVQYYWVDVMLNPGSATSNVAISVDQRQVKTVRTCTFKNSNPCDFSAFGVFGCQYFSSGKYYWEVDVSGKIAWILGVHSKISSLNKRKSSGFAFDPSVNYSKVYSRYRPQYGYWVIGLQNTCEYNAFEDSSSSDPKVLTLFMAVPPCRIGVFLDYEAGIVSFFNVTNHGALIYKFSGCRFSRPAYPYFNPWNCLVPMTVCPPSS
UniProt P19474: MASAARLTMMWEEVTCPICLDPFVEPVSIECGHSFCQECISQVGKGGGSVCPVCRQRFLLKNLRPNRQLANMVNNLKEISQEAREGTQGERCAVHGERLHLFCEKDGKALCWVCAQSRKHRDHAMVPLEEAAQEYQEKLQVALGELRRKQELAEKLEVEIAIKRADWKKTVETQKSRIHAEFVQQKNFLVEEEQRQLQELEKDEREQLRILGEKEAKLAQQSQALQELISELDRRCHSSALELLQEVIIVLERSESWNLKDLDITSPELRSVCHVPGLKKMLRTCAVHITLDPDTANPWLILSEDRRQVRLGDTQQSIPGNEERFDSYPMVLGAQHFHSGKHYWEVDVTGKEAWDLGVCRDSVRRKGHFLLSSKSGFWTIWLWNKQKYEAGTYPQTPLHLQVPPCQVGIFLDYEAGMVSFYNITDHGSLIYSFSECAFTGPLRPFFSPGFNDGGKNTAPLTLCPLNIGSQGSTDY

For “TRIM21 (IFN-β-induced) (from UniProt P19474 1-475)”, the binding (FLAG-TRIM6 (human)) was “no binding” and the binding (FLAG-TRIM22 (human)) was “no binding”.
